Test results as given in paper PMC2481268.
No constants are given. Whether binding was seen depends on the method and setting. Binding calls can cover weak binding; strength is not graded here. Tags and fused reporters may be left off the sequences shown. For part of these data: Binding seen in cells or lysates may run through a third protein.

B1: Bromodomain adjacent to zinc finger domain, 2B (Baz2b), GAL4 AD clone (domain or fragment, UniProt A2AUY4-1 615-883)
chain: TEGEKPAVNLTQTSSSAKSPPSSLTAHSAPHLHIGSPPGSAPAALCSESQPPAFLGTSSSTLTSTPHSGTSKRRRVADDQELRIPLDYGWQRETRVRNFGGRLPGEVAYYAPCGKKLRQCPDMVKGMQWCLLKEEDVIPRIRAMDGRRGRPPNPDRPRAREESRMKRRKGRPPNVGSAEFLDNTDAKLLRKLQAQEIARQAAQIKLLRKLQKQEQARVAKEAKKQQAIMAAEEKRKQKEQMKIIKQQEKIKRIQQIRMEKELRAQQILE
B2: B-Activating transcription factor (B-ATF), GAL4 AD clone (protein, UniProt O35284 1-120)
chain: MPHSSDSSDSSFSRSPPPGKQDSSDDVRKVQRREKNRIAAQKSRQRQTQKADTLHLESEDLEKQNAALRKEIKQLTEELKYFTSVLSSHEPLCSVLASGTPSPPEVVYSAHAFHQPHISS
B3: U2 auxiliary factor 26 (U2AF^26), GAL4 AD clone (domain or fragment, UniProt Q8BGJ9 53-220)
chain: RNPQNTAQTADGSHCHVSDVEVQEHYDNFFEEVFTELQEKYGEIEEMNVCDNLGDHLVGNVYVKFRREEDAERAVAELNNRWFNGQAVHAELSPVTDFRESCCRQYEMGECTRGGFCNFMHLRPISRNLRRQLYGRGPRHRSPPRSHTGHRPRERNRRRSPDHRHGRF
B4: Splicing factor 3a, subunit 3 (SF3a3), GAL4 AD clone (domain or fragment, UniProt Q9D554 318-501)
chain: KDIAFLEAQIYEYVEILGEQRQLTHENVQRKQARTGEEREEEEEEQISESESEDEENEIIYNPKNLPLGWDGKPIPYWLYKLHGLNINYNCEICGNYTYRGPKAFQRHFAEWRHAHGMRCLGIPNTAHFANVTQIEDAVSLWAKLKLQKASERWQPDTEEEYEDSSGNVVNKKTYEDLKRQGLL
B5: Ankyrin rep domain 49 (Ankrd49), GAL4 AD clone (domain or fragment, UniProt Q8VE42 6-190)
chain: KDDEKPDLENSVDFSEQFNQLELLKTHGHLIPTGTQSLWVGNSDEDEEQEEKNEEWYQLQEKKMEKDPSKLLLWAAEKNRLATVQRLLSEKAAEVNTRDEDEYTPLHRAAYSGHIDVVRELVAKGADVHAVTVDGWTPLHSACKWNNTKVASFLLQHDADINAQTKGLLTPLHLAAGNRDSRDTL
B6: Tata binding protein ABT1 (ABT1), GAL4 AD clone (domain or fragment, UniProt Q9QYL7 20-269)
chain: NAEAAEDQEEPEDTACSSSSKKKKKVVPGIVYLGHVPPRFRPLHVRNLLSAYGEVGRVFFQAEDHFVKRKKKAAAAAGGKKGAKYSKDYTEGWVEFRDKRVAKRVAASLHNTPMGARKRSPFRYDLWNLKYLHRFTWSHLSEHLAFERQVRRQRLRAEVAQAKRETDFYLRNVEQGQHFLAADGDATRPNSSWTFTQRPTEQEFRARKAARPGGRERARLANVEDQARSNRGLLAKIFGAPLPAESKEKP
B7: Step II Splicing factor SLU7, GAL4 AD clone (domain or fragment, UniProt Q8BHJ9 27-585)
chain: KMTREDWRKKKELEEQRKLGNAPAEVDEEGKDINPHIPQYISSVPWYIDPSKRPTLKHQRPQPEKQKQFSSSGEWYKRGVKENSITTKYRKGACENCGAMTHKRKDCFERPRRVGAKFTGTNIAPDEHVQPQLMFDYDGKRDRWNGYNPEEHMKIVEEYAKVDLAKRTLKAQKLQEELASGKLVEQANSPKHQWGEEEPNSQMEKDHNSEDEDEDKYADDIDMPGQNFDSKRRITVRNLRIREDIAKYLRNLDPNSAYYDPKTRAMRENPYANAGKNPDEVSYAGDNFVRYTGDTISMAQTQLFAWEAYDKGSEVHLQADPTKLELLYKSFKVKKEDFKEQQKESILEKYGGQEHLDAPPAELLLAQTEDYVEYSRHGTVIKGQERAVACSKYEEDVKINNHTHIWGSYWKEGRWGYKCCHSFFKYSYCTGEAGKESVNSEECIITGATAEESVKKPQALLELHQEKLKEEKKKKKKKKKHRKSSSDSDDEERKQEKLKKALNAEEARLLHVKEIMQIDERKRPYNSIYETREPTEEEMEAYRMKRQRPDDPMASFLGQ
B8: U5 small nuclear ribonucleoprotein (U5 snRNP), GAL4 AD clone (domain or fragment, UniProt Q6P4T2 1939-2136)
chain: ALAAMELAQMVTQAMWSKDSYLKQLPHFTSEHIKRCTDKGVESVFDIMEMEDEERNALLQLTDSQIADVARFCNRYPNIELSYEVVDKDSIRSGGPVVVLVQLEREEEVTGPVIAPLFPQKREEGWWVVIGDAKSNSLISIKRLTLQQKAKVKLDFVAPATGGHNYTLYFMSDAYMGCDQEYKFSVDVKEAETDSDSD
B9: GST-Baz2b (two-hybrid insert in pGEX2TPL) (domain or fragment, UniProt A2AUY4-1 615-883)
chain: B1 chain
B10: GST-U2AF^26 (two-hybrid insert in pGEX2TPL) (domain or fragment, UniProt Q8BGJ9 53-220)
chain: B3 chain
B11: GST-Ankrd49 (two-hybrid insert in pGEX2TPL) (domain or fragment, UniProt Q8VE42 6-190)
chain: B5 chain
B12: GST-SF3a3 (two-hybrid insert in pGEX2TPL) (domain or fragment, UniProt Q9D554 318-501)
chain: B4 chain
B13: GST-U5snRNP (two-hybrid insert in pGEX2TPL) (domain or fragment, UniProt Q6P4T2 1939-2136)
chain: B8 chain

Molecular target: lexA-MoMLV integrase fusion (pSH2-mIN) (Moloney murine leukemia virus)
Experiment: two-hybrid; lexA fusions (pSH2-1 or pNlexA) as baits and GAL4 AD fusions (pGADNOT or pACT2) in S. cerevisiae CTY10-5d; qualitative X-gal colony lift assay (lexAop-lacZ) at 30°C

| Binder | binding |
| --- | --- |
| B1 | binds |
| B2 | binds |
| B3 | binds |
| B4 | binds |
| B5 | binds |
| B6 | binds |
| B7 | binds |
| B8 | binds |

Molecular target: lexA-HIV-1 integrase fusion (pSH2-hIN) (HIV-1)
Experiment: as above

| Binder | binding |
| --- | --- |
| B1 | binds |
| B2 | binds weakly |
| B3 | binds |
| B4 | binds |
| B5 | binds |
| B6 | binds |
| B7 | binds |
| B8 | binds weakly |

Molecular target: MoMLV integrase-lexA fusion (mIN-pNlexA) (Moloney murine leukemia virus)
Experiment: as above

| Binder | binding |
| --- | --- |
| B1 | binds |
| B2 | binds |
| B3 | binds |
| B4 | binds |
| B5 | no binding |
| B6 | binds |
| B7 | binds |
| B8 | no binding |

Molecular target: maltose binding protein-HIV-1 integrase fusion (pmalc2-hIN) (HIV-1)
Experiment: pull-down; as the MBP-GST binding assay, but each E. coli lysate treated with DNase (Turbo DNA-free) and RNase before the lysates were mixed (Figure 5)

| Binder | binding |
| --- | --- |
| B9 | binds |
| B10 | binds |
| B11 | binds |

Molecular target: maltose binding protein-MoMLV integrase fusion (pmalc2-mIN) (Moloney murine leukemia virus)
Experiment: as above

| Binder | binding |
| --- | --- |
| B9 | binds |
| B10 | binds |
| B11 | binds |

Molecular target: GAL4 DNA binding domain-MoMLV integrase fusion (pGBKT7-mIN) (Moloney murine leukemia virus)
Experiment: two-hybrid; GAL4 DNA binding domain fusions (pGBKT7) and GAL4 AD fusions in S. cerevisiae SFY526; qualitative colony lift assay (GAL1-lacZ)

| Binder | binding |
| --- | --- |
| B1 | no binding |
| B2 | no binding |
| B3 | no binding |
| B4 | no binding |
| B5 | no binding |
| B6 | binds |
| B7 | no binding |
| B8 | no binding |

Molecular target: GAL4 DNA binding domain-HIV-1 integrase fusion (pGBKT7-hIN) (HIV-1)
Experiment: as above

| Binder | binding |
| --- | --- |
| B1 | no binding |
| B2 | no binding |
| B4 | no binding |
| B5 | binds weakly |
| B6 | no binding |
| B7 | no binding |

Molecular target: maltose binding protein-HIV-1 integrase fusion (pmalc2-hIN) (HIV-1)
Experiment: pull-down; MBP fusion lysates bound to amylose resin and washed; GST fusion E. coli lysates added, 1 h at 4°C; washed in Buffer A or C with 0.1-0.3% IGEPAL CA-630; eluted with 15 mM maltose; Western with anti-GST and anti-MBP; only the target purified

| Binder | binding |
| --- | --- |
| B9 | binds |
| B10 | binds |
| B12 | binds |
| B11 | binds |
| B13 | binds |

Molecular target: maltose binding protein-MoMLV integrase fusion (pmalc2-mIN) (Moloney murine leukemia virus)
Experiment: as above

| Binder | binding |
| --- | --- |
| B9 | binds |
| B10 | binds |
| B12 | binds |
| B11 | binds |
| B13 | binds |
